Measured values reported in the supplement of paper PMC12425257.
± gives the standard deviation of the averaged measurements. The list shows a part of the results.

What follows are compounds tested on Madurella mycetomatis MM55 (assay: metabolic activity (growth) relative to DMSO growth control; higher = more fungal growth). Conditions: 2 µM.
Compound `COc1cc2c(cc1OC)C(=C(Nc1ccccc1)c1cccc(CN)c1)C(=O)N2` has a metabolic activity of 66.5 ± 0.76%. Work on `Cn1cc(-c2cnc3ccc4ccc(COC(=O)NCc5ccccn5)cc4c(=O)c3c2)cn1` yielded a metabolic activity of 133 ± 6.8%. Compound `COc1cc(N2CCN(C)CC2)ccc1Nc1ncc2c(n1)N(C)c1ccccc1C(=O)N2` has a metabolic activity of 78.4 ± 2%. `NC[C@@H](NC(=O)c1cccc(-c2ccccn2)c1)c1ccccc1` was tested, and the metabolic activity was 129 ± 13%. With `O=C(Nc1n[nH]c2cc(-c3cccc(F)c3F)ccc12)C1CC1` the metabolic activity was 83.8 ± 9.3%. `CCN1CCN(Cc2ccc(C(=O)Nc3ccc(C)c(Oc4ccc5c(c4)CC(=O)N5)c3)cc2C(F)(F)F)CC1.Cl.Cl` was tested, and the metabolic activity was 108 ± 3.6%. Work on `O=C1NC(=O)C(c2c[nH]c3sccc23)=C1c1nc(N2CCN(CCO)CC2)nc2ccccc12` yielded a metabolic activity of 55 ± 30%. With `NCC1CNC(=O)c2cc3ccc(C(=O)Nc4cccnc4)cc3n2C1` (centres undefined) the metabolic activity was 98.8 ± 22%. `CCOc1ccc2c(-c3ccnc(Nc4cccc(C(F)(F)F)c4)n3)cnn2n1` was tested, and the metabolic activity was 83.2 ± 28%. For `CC(C)(C)c1cnc(CSc2cnc(NC(=O)C3CCS(=O)(=O)CC3)s2)o1`, the metabolic activity was 95.2 ± 41%. `Cl.O=C(O[C@H]1CN[C@H](C#Cc2cc3ncnc(Nc4ccc5c(cnn5Cc5ccccc5)c4)c3s2)C1)N1CCOCC1` was tested, and the metabolic activity was 92.8 ± 21%. Compound `O=C(O)c1cc2c(-c3cccc(-c4ccccc4)c3)cncc2s1` has a metabolic activity of 90.8 ± 4.9%. For `C[C@@H]1CCNC(=O)c2cc3ccc(C(=O)Nc4nc5ccccc5n4CCCN(C)C)cc3n21`, the metabolic activity was 90.5 ± 4.8%. Compound `O=C(O)C(F)(F)F.O=c1c2cnc(Nc3ccc(N4CCCCC4)cc3)nc2n2ccnc2n1-c1ccccc1Cl` has a metabolic activity of 123 ± 18%.
